# According to PubChem BioAssay AID2685 (National Center for Advancing Translational Sciences (NCATS), 2010):
# Some of the results follow. Shown are side measurements of this screen, not its main read-out; they come without a call. The list favours compounds with an active or inconclusive main result. The note in brackets gives the kind of curve behind each potency; many fits are weak.
# Assay: qHTS Assay for Lipid Storage Modulators in Drosophila S3 Cells;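 on cell number change: cells counted by Cell Tracker Red CMTPX staining in the red channel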
# Details: BODIPY lipid droplet fluorescence, 18-24 h; for cell number change: measured here: cell count max response, cells fed with added oleic acid
# Procedure, shortened: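 Drosophila S3 cells got compounds at several concentrations plus oleic acid (400 uM solution). Laser-scanning cytometry with 488 nm excitation read lipid droplets at 500-530 nm and cells at 575-640 nm. Percent activity was relative to 20 uM Triacsin C.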
# [1] = measured here: lipid fluorescence (Fed channel) AC50, cells fed with added oleic acid
# [2] = measured here: cell number channel AC50, cells fed with added oleic acid
SMILES,cell number change [%],AC50 [1],AC50 [2]
CCC(C(=O)NCCc1ccc(C)cc1)n1nc(C)c2c(C)n(-c3ccccc3)nc2c1=O (stereo not drawn),-18.9,"0.58 µM [falling, single point]",
CCOC(=O)N1CCN(Cc2nc(Cc3cccc(F)c3)no2)CC1,21.3,"0.082 µM [rising, full curve, poor fit]",
Cc1ccc(-c2nc3s/c(=C\c4ccco4)c(=O)n3n2)cc1,-11.1,"0.731 µM [falling, full curve, poor fit]",
CCS(=O)(=O)c1nc(S(=O)(=O)c2ccc(C)cc2)c(N2CCC(C)CC2)s1,-20.3,,
CCOC(=O)c1c(NC(=O)CCS(=O)(=O)c2ccccc2)sc2c1CCN(C(C)C)C2,-13.8,"16.4 µM [falling, single point]",
CCN1C(=O)/C(=C2/Sc3ccccc3N2CC)S/C1=N\c1ncn[nH]1,-34,"23.1 µM [falling, single point]","23.1 µM [falling, single point]"
CCCC(c1nnnn1C1CCCCC1)N1CCN(C(=O)c2ccco2)CC1 (stereo not drawn),5,,
CCCC(=O)Nc1nc(-c2ccc3c(c2)OCCO3)cs1,62.9,"6.51 µM [rising, single point]","11.6 µM [rising, partial curve]"
COc1cccc(OC)c1C(=O)Nc1ccc2c(c1)n(C)c(=O)n2C,-9.67,"29.1 µM [rising, single point]",
COc1cc2c(cc1OC)C(=O)CCS2,10.9,"6.51 µM [falling, single point]","0.82 µM [falling, full curve, poor fit]"
Cc1cc(F)ccc1NC(=O)c1cc(S(=O)(=O)N2CCCC2)cn1C,3.17,"4.61 µM [rising, single point]",
Cc1cccc(-n2[nH]c(C)c(C=Nc3ccc4[nH]c(=O)[nH]c4c3)c2=O)c1,-11.7,"29.1 µM [falling, single point]",
COc1cc(NC(=O)CN2CCN(CC(=O)Nc3ccccc3OC)CC2)cc(OC)c1,15.5,,
COC(=O)Nc1ccc(S(=O)(=O)N2CCCC(C(=O)NC3CCS(=O)(=O)C3)C2)cc1 (stereo not drawn),20.4,"23.1 µM [rising, single point]",
COc1ccc(C2=NN(C(=O)CSc3nc(=O)n4cc(C)ccc4n3)C(c3ccc(C)cc3)C2)cc1 (stereo not drawn),60.8,"3.26 µM [rising, partial curve]","4.11 µM [rising, partial curve]"
CC(CCc1ccccc1)OS(N)(=O)=O (stereo not drawn),37.2,,"11.6 µM [rising, partial curve, poor fit]"
Cn1nc(-c2ccc(C(=O)NC3CCCCC3)cc2)c2ccccc2c1=O,-14.5,"35.5 µM [falling, single point]",
Cc1cccc(C(=O)NCCc2ccc(S(N)(=O)=O)cc2)c1[N+](=O)[O-],-2.43,"3.26 µM [rising, single point]",
OCCCNc1nnc(-c2ccccc2)c2ccccc12,49.9,"32.6 µM [rising, partial curve]","29.1 µM [rising, single point]"

SMILES,cell number change [%],AC50 [1],AC50 [2]
COc1ccccc1C(=O)COC(=O)C1CCN(S(=O)(=O)c2ccc(C)c(C)c2)CC1,-7,,
O=c1cc(-c2ccccc2)nc2nc(SCc3ccccc3)[nH]n12,34.3,,"18.4 µM [rising, single point]"
CCc1ccc(NC(=O)CC2NCCNC2=O)cc1 (stereo not drawn),-46,"0.731 µM [falling, full curve]","29.1 µM [falling, single point]"
C[C@H](NC(=O)[C@@H]1Cc2ccccc2CN1)C(=O)NC[C@H]1CC[C@H](C(=O)O)CC1,-15.7,"23.1 µM [falling, single point]",
CCOc1ccc(NC(C)C(=O)N/N=C/c2cccs2)cc1 (stereo not drawn),10.4,"1.03 µM [rising, full curve, poor fit]",
Cc1ccccc1-n1c(SCC(=O)c2c(N)n(C)c(=O)n(C)c2=O)nc2sc3c(c2c1=O)CCCC3,7.15,"0.58 µM [rising, full curve]",
CC(C)=C(NC(=O)c1ccccc1)C(=O)N1CCOCC1,-33.9,"0.259 µM [falling, full curve]","29.1 µM [falling, single point]"
COc1ccc(OCCSc2nnc(-c3ccoc3C)n2C)cc1,-8.29,"0.651 µM [rising, full curve]",
CCOc1ccc(NC(=O)c2ccccc2SC)cc1,-28.3,"29.1 µM [falling, single point]",
COCCCNC(=O)CCc1c(C)nc2c(-c3ccc(F)cc3)c(C)nn2c1C,12.5,,"2.06 µM [rising, single point]"
O=C1C(Cl)=C(N2CCCCC2)C(=O)N1c1ccccc1Cl,-34.7,"16.4 µM [falling, partial curve]","0.184 µM [falling, full curve, poor fit]"
O=C(CCn1cnc2ccccc2c1=O)Nc1ccc(Cl)c(Cl)c1,-91,"23.1 µM [falling, single point]","16.4 µM [falling, partial curve]"
COc1ccc(C(=O)Nc2ccc3ccccc3c2)cc1,7.77,"29.1 µM [falling, single point]",
O=C(O)c1cc(-c2ccccc2)nc2nc(N3CCCCC3)sc12,-24.6,"20.6 µM [falling, single point]",
C/C(CC(C)C)=N/Nc1ccc([N+](=O)[O-])cc1[N+](=O)[O-],-47.3,"29.1 µM [falling, single point]","20.6 µM [falling, single point]"
CCOC(=O)C1(Cc2cccc(OC)c2)CCCN(Cc2cc(OC)c(O)c(OC)c2)C1 (stereo not drawn),16.5,,
COc1ccc(C(=O)c2cc([N+](=O)[O-])ccc2N2CCOCC2)cc1,,"11.6 µM [rising, partial curve]",
CCCCn1c(N)c(N(CCC(C)C)C(=O)CSc2nnc(C)s2)c(=O)[nH]c1=O,1.34,,
CCCc1nc2ccccc2c(C(=O)N(CC)CC(=O)NCc2cccs2)c1CC,38.5,,"8.2 µM [rising, partial curve]"

SMILES,cell number change [%],AC50 [1],AC50 [2]
CCOc1ccc(Oc2ccc(C(F)(F)F)cc2N)cc1,-31.2,"16.4 µM [falling, single point]","16.4 µM [falling, single point]"
COc1ccc(NC(=O)Nc2ccc(C(C)C)cc2)cc1,16.3,"1.3 µM [rising, full curve, poor fit]",
O=S(=O)(c1ccccc1)C1(C2CC(c3ccccc3)=NO2)CC(O)C1 (stereo not drawn),-6.59,,
Cc1cc(C)c2cc(CN(Cc3ccco3)C(=O)NCc3ccccc3)c(=O)[nH]c2c1,,"1.3 µM [rising, partial curve]",
O=C(O)CSc1nnc(-c2cccs2)n1-c1ccc(Cl)cc1,-22.2,"29.1 µM [falling, single point]",
Cc1cc(NC(=O)c2ccc(Cl)cc2)cc(C)c1OCC(=O)N1CCOCC1,-9.86,"1.16 µM [falling, single point]",
Cc1ccc(-c2[nH]nc3c2C(c2ccoc2)C(C#N)=C(N)O3)cc1C (stereo not drawn),-17.8,"4.11 µM [rising, single point]",
Cc1ccc(NC(=O)CN(C)C(=O)C(C)N2CCN(Cc3ccccc3C)CC2)cc1 (stereo not drawn),11.5,"6.51 µM [rising, single point]",
CN(C(=O)CSc1nnc(NC2CCCCC2)s1)C1CCS(=O)(=O)C1 (stereo not drawn),-7.54,,"0.00651 µM [falling, full curve, poor fit]"
CC1(C(=O)O)CCC(C(=O)Nc2ccccc2)C1(C)C (stereo not drawn),-25.2,"3.26 µM [falling, full curve]","1.64 µM [falling, full curve, poor fit]"
O=[N+]([O-])c1ccccc1/C=C/CN1CCCCC1,-23.9,"0.146 µM [falling, full curve, poor fit]",
O=C(CSc1n[nH]c(=O)n1-c1ccc2c(c1)OCCO2)Nc1ccccc1,27.2,,"4.11 µM [rising, full curve, poor fit]"
O=C(O)/C=C/C(=O)N(Cc1ccc2c(c1)OCO2)C1CC(=O)N(CCc2ccccc2)C1=O (stereo not drawn),4.05,"0.184 µM [falling, full curve, poor fit]",
CC(C)OCCCNC(=O)CNC(=O)c1cccs1,-10.8,"0.206 µM [falling, full curve]",
COCCOC(=O)C1=C(C)N(c2ccccc2)C(=S)NC1c1ccccc1C(F)(F)F (stereo not drawn),46.6,"0.146 µM [falling, full curve, poor fit]","5.17 µM [falling, single point]"
CC(NC(=O)C1CCCN(C(=O)N(C)C)C1)c1ccccc1 (stereo not drawn),,"20.6 µM [falling, partial curve]",
COc1ccc(CN2CCNC(=O)C2CC(=O)NCCCC2CCCC2)c(F)c1 (stereo not drawn),24.1,"2.06 µM [rising, partial curve]",
COc1ccc(CCN(C)S(=O)(=O)c2cn(C)c(=O)n(C)c2=O)cc1OC,-10.3,"0.0731 µM [falling, full curve, poor fit]",
COc1ccc(NC(=O)CSc2nc(O)c(Cc3ccccc3)c(=O)[nH]2)cc1,-43.9,"29.1 µM [falling, single point]","29.1 µM [falling, single point]"

# 4 of these compounds, reformatted:
SMILES	cell number change [%]	AC50 [1]	AC50 [2]
O=[N+]([O-])c1ccccc1/C=C/CN1CCCCC1	-23.9	0.146 µM [falling, full curve, poor fit]	
O=C(CSc1n[nH]c(=O)n1-c1ccc2c(c1)OCCO2)Nc1ccccc1	27.2		4.11 µM [rising, full curve, poor fit]
O=C(O)/C=C/C(=O)N(Cc1ccc2c(c1)OCO2)C1CC(=O)N(CCc2ccccc2)C1=O (stereo not drawn)	4.05	0.184 µM [falling, full curve, poor fit]	
CC(C)OCCCNC(=O)CNC(=O)c1cccs1	-10.8	0.206 µM [falling, full curve]	
